Experimental findings from patent publication US20230374088A1 are described below.

By UniProt entry, the sequences of proteins in these tests, tags left out. Where a name states a change or a piece, a line headed by the entry shows the natural chain unless it says otherwise. Chains listed by the source or under a name are the forms on record and can include a tag or linker. Residues count along the entry.
c-Myc-Gli2 (1-594aa) (P10070, residues 1-594): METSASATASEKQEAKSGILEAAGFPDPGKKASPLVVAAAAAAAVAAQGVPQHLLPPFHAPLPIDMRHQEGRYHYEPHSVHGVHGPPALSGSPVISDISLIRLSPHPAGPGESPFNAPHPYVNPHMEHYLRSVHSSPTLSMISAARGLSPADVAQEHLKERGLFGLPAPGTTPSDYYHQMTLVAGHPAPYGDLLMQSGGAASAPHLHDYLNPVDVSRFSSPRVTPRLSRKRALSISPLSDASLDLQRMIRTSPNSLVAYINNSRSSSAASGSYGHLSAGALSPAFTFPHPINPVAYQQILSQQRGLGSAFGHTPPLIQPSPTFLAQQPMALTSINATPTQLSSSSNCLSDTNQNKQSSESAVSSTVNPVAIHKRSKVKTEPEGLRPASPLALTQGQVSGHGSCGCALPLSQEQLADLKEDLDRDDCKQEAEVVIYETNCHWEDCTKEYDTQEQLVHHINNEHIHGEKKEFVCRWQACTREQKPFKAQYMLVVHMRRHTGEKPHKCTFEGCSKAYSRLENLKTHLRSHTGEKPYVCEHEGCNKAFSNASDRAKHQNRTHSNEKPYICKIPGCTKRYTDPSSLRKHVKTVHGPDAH
c-Myc-Gli2 (418-594aa) (P10070, residues 418-594): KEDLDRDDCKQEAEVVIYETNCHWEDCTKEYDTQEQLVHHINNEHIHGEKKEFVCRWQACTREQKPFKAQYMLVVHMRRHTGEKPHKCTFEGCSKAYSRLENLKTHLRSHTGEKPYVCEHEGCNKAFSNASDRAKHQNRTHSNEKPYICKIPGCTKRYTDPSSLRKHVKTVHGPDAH
c-Myc-Gli2 (418-594aa) ZF4-mut (R550A, K552A, R556A) (P10070, form named): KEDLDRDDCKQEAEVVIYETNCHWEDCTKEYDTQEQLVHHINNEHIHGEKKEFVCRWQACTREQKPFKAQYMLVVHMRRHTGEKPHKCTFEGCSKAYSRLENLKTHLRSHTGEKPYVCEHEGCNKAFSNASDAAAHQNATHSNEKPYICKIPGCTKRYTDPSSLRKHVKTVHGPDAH

Assay [1] concerns the target c-Myc-Gli2 (1-594aa) (human) (UniProt P10070). The experiment in a line: pull-down on anti-FLAG beads, anti-c-myc blot, Expi293F cells.
The target of assay [2] is c-Myc-Gli2 (418-594aa) ZF4-mut (R550A, K552A, R556A) (human) (UniProt P10070). Described as above.
Assay [3] addresses c-Myc-Gli2 (418-594aa) (human) (UniProt P10070). Nature of the assay: pull-down on anti-FLAG beads with Kif7(460-600aa), anti-c-myc blot, Expi293F cells.
Assay [4] shares this target. The experiment in a line: pull-down on anti-FLAG beads, anti-c-myc blot, Expi293F cells.

No constants are given. Whether binding was seen depends on the method and setting. In cells and extracts the contact can be indirect. Some binding calls cover weakened binding; strength is not graded here. Sequences can lack the tags named with a protein.

B1: FLAG-Kif7-CC (460-600aa) (protein, not shown: small tags and cut ends)
chain: PDSGIESASVEDQAAQGAGGRKEDEGAQQLLTLQNQVARLEEENRDFLAALEDAMEQYKLQSDRLREQQEEMVELRLRLELVRPGWGGPRLLNGLPPGSFVPRPHTAPLGGAHAHVLGMVPPACLPGDEVGSEQRGEQVTN
B1: the binding result in assay [1], in assay [2] and in assay [3] was “binds” in each case.

B2: FLAG-Kif7-CC (460-600aa) S3-mut2 (E530A, R535A) (protein, not shown: small tags and cut ends)
chain: PDSGIESASVEDQAAQGAGGRKEDEGAQQLLTLQNQVARLEEENRDFLAALEDAMEQYKLQSDRLREQQEAMVELALRLELVRPGWGGPRLLNGLPPGSFVPRPHTAPLGGAHAHVLGMVPPACLPGDEVGSEQRGEQVTN
On to B2, for which the binding entry in assay [4] is recorded as “binds”.

B3: FLAG-Kif7-CC (460-600aa) S3-mut1 (E526A, E529A) (protein, not shown: small tags and cut ends)
chain: PDSGIESASVEDQAAQGAGGRKEDEGAQQLLTLQNQVARLEEENRDFLAALEDAMEQYKLQSDRLRAQQAEMVELRLRLELVRPGWGGPRLLNGLPPGSFVPRPHTAPLGGAHAHVLGMVPPACLPGDEVGSEQRGEQVTN
For B3, the binding result in assay [4] was “binds”.

B4: FLAG-Kif7-CC (460-600aa) S2-mut (E511A, E515A) (protein, not shown: small tags and cut ends)
chain: PDSGIESASVEDQAAQGAGGRKEDEGAQQLLTLQNQVARLEEENRDFLAALADAMAQYKLQSDRLREQQEEMVELRLRLELVRPGWGGPRLLNGLPPGSFVPRPHTAPLGGAHAHVLGMVPPACLPGDEVGSEQRGEQVTN
On to B4, for which the binding entry in assay [4] is on record as “binds”.

B5: FLAG-Kif7 (1-543aa) (protein, not shown: small tags and cut ends)
chain: MGLEAQRLPGAEEAPVRVALRVRPLLPKELLHGHQSCLQVEPGLGRVTLGRDRHFGFHVVLAEDAGQEAVYQACVQPLLEAFFEGFNATVFAYGQTGSGKTYTMGEASVASLLEDEQGIVPRAMAEAFKLIDENDLLDCLVHVSYLEVYKEEFRDLLEVGTASRDIQLREDERGNVVLCGVKEVDVEGLDEVLSLLEMGNAARHTGATHLNHLSSRSHTVFTVTLEQRGRAPSRLPRPAPGQLLVSKFHFVDLAGSERVLKTGSTGERLKESIQINSSLLALGNVISALGDPQRRGSHIPYRDSKITRILKDSLGGNAKTVMIACVSPSSSDFDETLNTLNYASRAQNIRNRATVNWRPEAERPPEETASGARGPPRHRSETRIIHRGRRAPGPATASAAAAMRLGAECARYRACTDAAYSLLRELQAEPGLPGAAARKVRDWLCAVEGERSALSSASGPDSGIESASVEDQAAQGAGGRKEDEGAQQLLTLQNQVARLEEENRDFLAALEDAMEQYKLQSDRLREQQEEMVELRLRLELVRP
With B5, the binding result in assay [1] was “binds”.

B6: FLAG-Kif7-SCC (481-543aa) (protein, not shown: small tags and cut ends)
chain: KEDEGAQQLLTLQNQVARLEEENRDFLAALEDAMEQYKLQSDRLREQQEEMVELRLRLELVRP
With B6, the binding entry in assay [1] is listed as “binds”.
